Results as given in the supplement of paper PMC7646827.
Single values are uncertain, as repeats are few or missing.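 All cells are established human bladder cancer lines, one derived from a patient-derived xenograft. A luminescent ATP assay measured viability as percent inhibition relative to vehicle across seven dilutions. The paper rates scores above 59 very active, 30–59 active, 21–29 semi-active, 9–20 low active, below 9 inactive.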

Columns and labels:
Assay in all cases: drug sensitivity score DSS3 (score 0-100); higher = more sensitive; extreme values may be limits of the assay
Conditions in all cases: culture: 3D, ultra-low attachment; treatment time: 5 days
TCCSUP = tested on: TCCSUP
5637 = tested on: 5637
UM-UC-17 = tested on: UM-UC-17
J82 = tested on: J82
UM-UC-12 = tested on: UM-UC-12
T-24 = tested on: T-24
UM-UC-9 = tested on: UM-UC-9
UM-UC-14 = tested on: UM-UC-14
UM-UC-6 = tested on: UM-UC-6
UM-UC-15 = tested on: UM-UC-15
UM-UC-5 = tested on: UM-UC-5
UM-UC-18 = tested on: UM-UC-18
SW780 = tested on: SW780
UM-UC-1 = tested on: UM-UC-1
UM-UC-3 = tested on: UM-UC-3
BC8149 = tested on: BC8149
SCaBER = tested on: SCaBER

Row | Compound | drug sensitivity score DSS3 (TCCSUP) | drug sensitivity score DSS3 5637 | drug sensitivity score DSS3 (UM-UC-17) | drug sensitivity score DSS3 (J82) | drug sensitivity score DSS3 (UM-UC-12) | drug sensitivity score DSS3 (T-24) | drug sensitivity score DSS3 (UM-UC-9) | drug sensitivity score DSS3 (UM-UC-14) | drug sensitivity score DSS3 (UM-UC-6) | drug sensitivity score DSS3 (UM-UC-15) | drug sensitivity score DSS3 (UM-UC-5) | drug sensitivity score DSS3 (UM-UC-18) | drug sensitivity score DSS3 (SW780) | drug sensitivity score DSS3 (UM-UC-1) | drug sensitivity score DSS3 (UM-UC-3) | drug sensitivity score DSS3 (BC8149) | drug sensitivity score DSS3 (SCaBER)
1 | COc1ccc(Cl)c(Nc2nc3ccccc3nc2NS(=O)(=O)c2cccc(NC(=O)C(C)(C)N)c2)c1 [Pilaralisib (XL147)] (max dose 10000 nM) | 4.25 | 2.71 | 0.208 | 0 | 1.44 | 0 | 0.00685 | 0 | 0.613 | 0 | 0 | 0 | 0 | 0.517 | 1.03 |  | 
2 | CCNC(=O)Nc1ccc(-c2nc3c(c(N4CCOC[C@@H]4C)n2)CCN(C2COC2)C3)cc1 [GDC-0349] (max dose 10000 nM) | 29.2 |  | 0 | 1.54 |  | 0 | 8.09 | 5.33 | 5.71 | 0.526 | 11.7 | 19.9 | 6.36 | 10.2 | 7.1 | 30.6 | 
3 | O=C(NCCCNc1nc(Nc2cccc(NC(=O)N3CCCC3)c2)ncc1I)c1cccs1 [BX-795] (max dose 10000 nM) | 0.105 | 0.513 | 0.109 | 0 | 0 | 0 | 0 | 0.0555 | 0 | 0 | 0.376 | 0.125 | 0 |  | 1.43 | 0.127 | 
4 | Cc1ccc([N+](=O)[O-])cc1S(=O)(=O)N(C)C (max dose 10000 nM) | 0 | 0 | 0 | 0 | 0 | 0 | 0 | 0 | 0 | 0 | 0 | 0 | 0 | 0 | 0.163 |  | 
5 | c1cn2cc(-c3ccc4cn[nH]c4c3)nc(Nc3ccc(N4CCOCC4)cc3)c2n1 [Entospletinib (GS-9973)] (max dose 10000 nM) | 6.3 | 0.655 | 0.16 |  | 0 | 30.4 | 0 | 1.35 |  | 0 | 0.795 | 0 | 0 |  | 0 | 0 | 
6 | CNC(=O)c1ccccc1Sc1ccc2c(/C=C/c3ccccn3)n[nH]c2c1 [Axitinib] (max dose 10000 nM) | 8.87 | 2.69 | 0 |  |  | 0.0226 | 0 | 0.955 | 2.12 | 0 | 0 | 0.00454 | 0 | 2.1 | 0 | 0 | 
7 | CCOc1ccc(Cc2cc([C@]34OC[C@](CO)(O3)[C@@H](O)[C@H](O)[C@H]4O)ccc2Cl)cc1 [Ertugliflozin] (max dose 10000 nM) | 0 | 0 | 0 | 0 | 0 |  | 0 | 0 | 0 | 16.5 | 0 | 0 | 0 | 0 | 0 | 0 | 0
8 | CCN1CCN(C(=O)Cc2ccc(Nc3ncc(F)c(Nc4ccc(C(=O)Nc5ccccc5Cl)cc4)n3)cc2)CC1 [Aurora A Inhibitor I] (max dose 10000 nM) | 3.43 | 2.52 | 0 | 0 | 0.821 |  | 0 | 1.33 | 1.3 | 0.237 | 0 | 0.871 | 0 | 3.02 | 0.65 | 1.65 | 1.43
9 | Cc1ccc(C(=O)N(CCCN)[C@@H](c2nc3cc(Cl)ccc3c(=O)n2Cc2ccccc2)C(C)C)cc1 (max dose 10000 nM) | 65.8 | 70.3 | 62.1 | 0 | 43.2 | 1.78 | 0 | 44 | 21.5 | 0 |  | 31.1 | 6.69 | 46.7 | 29.6 | 20.6 | 
10 | CC(C)n1c([C@H](C)Nc2ncnc(N)c2C#N)cc2cccc(-c3ccc(=O)n(C)c3)c2c1=O [IPI-3063] (max dose 10000 nM) | 15.9 | 26.5 | 14.1 | 17.6 |  | 0 | 4.64 | 3.6 | 19.8 | 0 | 8.31 |  | 14 | 22.1 | 28 | 33.3 | 
11 | CNC(=O)c1cccc(-c2ccc3c(N4CCOC[C@@H]4C)nc(N4CCOC[C@@H]4C)nc3n2)c1 [AZD2014] (max dose 10000 nM) | 44.4 | 30.5 | 6.89 | 14.3 | 25.2 |  | 11.4 | 19.8 | 22.6 | 0 | 28.5 | 20.2 | 12.9 | 33.3 | 14.5 | 44.5 | 33.1
